± gives the standard deviation of the averaged measurements. This is a selection; strong and weak results do not stand in their true shares. Most entries show no effect beyond the scatter of the controls.
Compound: Nc1ncnc2c1ncn2[C@@H]1O[C@H](COP(=O)(O)OP(=O)(O)NP(=O)(O)O)[C@@H](O)[C@H]1O [adenylyl imidodiphosphate]
Experiment: NP40-soluble protein abundance relative to vehicle (solubility fold change) (ratio); higher = more soluble protein in presence of AMP-PNP
How it was run: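 Each value is a fold change relative to the detergent-processed vehicle, calculated per replicate from vsn-normalised intensities. Jurkat crude lysate received eight concentrations (0.1 to 10 mM) for 10 min at room temperature and 3 min at 37 °C, then was solubilised in 0.8% NP40 with benzonase (60 min, 4 °C). The ultracentrifuged supernatant was TMT-labelled and run by LC-MS/MS in three independent experiments.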

Chains of the proteins cited; added tags and fusions are not shown. Lines headed by an entry give the natural chain unless they say otherwise; changes in a name come on top.
UniProt Q8TAA3: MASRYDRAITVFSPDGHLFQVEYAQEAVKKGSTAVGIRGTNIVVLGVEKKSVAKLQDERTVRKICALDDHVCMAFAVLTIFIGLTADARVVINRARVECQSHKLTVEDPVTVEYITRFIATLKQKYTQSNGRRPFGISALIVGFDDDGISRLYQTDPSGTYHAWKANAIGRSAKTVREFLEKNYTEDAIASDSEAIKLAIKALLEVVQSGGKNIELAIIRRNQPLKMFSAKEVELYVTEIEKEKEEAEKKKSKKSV
UniProt Q8NFI3: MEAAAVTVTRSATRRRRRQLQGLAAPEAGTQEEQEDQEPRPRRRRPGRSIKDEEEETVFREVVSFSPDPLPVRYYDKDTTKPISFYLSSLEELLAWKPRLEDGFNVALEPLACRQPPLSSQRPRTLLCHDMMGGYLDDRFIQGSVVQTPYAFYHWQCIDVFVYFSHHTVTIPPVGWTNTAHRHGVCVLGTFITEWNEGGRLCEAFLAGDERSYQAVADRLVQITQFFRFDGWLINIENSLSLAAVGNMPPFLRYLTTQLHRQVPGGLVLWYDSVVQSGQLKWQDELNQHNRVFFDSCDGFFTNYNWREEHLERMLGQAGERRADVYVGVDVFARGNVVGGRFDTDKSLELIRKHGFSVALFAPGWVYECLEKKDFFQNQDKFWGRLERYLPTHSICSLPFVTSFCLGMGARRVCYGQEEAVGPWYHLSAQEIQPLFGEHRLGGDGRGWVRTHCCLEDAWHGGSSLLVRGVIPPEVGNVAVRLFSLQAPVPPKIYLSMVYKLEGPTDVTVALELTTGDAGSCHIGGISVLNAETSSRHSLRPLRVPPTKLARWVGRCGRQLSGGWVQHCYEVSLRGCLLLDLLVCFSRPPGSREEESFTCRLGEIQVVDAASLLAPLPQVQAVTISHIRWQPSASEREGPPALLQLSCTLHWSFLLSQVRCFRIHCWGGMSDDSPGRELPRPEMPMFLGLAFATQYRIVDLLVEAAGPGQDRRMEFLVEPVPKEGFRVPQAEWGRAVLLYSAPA
UniProt Q8NFH5: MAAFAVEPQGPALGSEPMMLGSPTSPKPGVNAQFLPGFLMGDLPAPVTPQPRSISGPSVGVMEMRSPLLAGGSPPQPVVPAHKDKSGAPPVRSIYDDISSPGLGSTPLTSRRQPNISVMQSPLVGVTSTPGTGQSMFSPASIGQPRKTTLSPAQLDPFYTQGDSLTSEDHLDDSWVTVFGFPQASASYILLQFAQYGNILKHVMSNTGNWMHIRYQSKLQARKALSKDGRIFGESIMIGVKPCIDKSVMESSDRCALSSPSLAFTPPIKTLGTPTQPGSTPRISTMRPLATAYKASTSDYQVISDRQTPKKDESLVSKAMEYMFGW
UniProt Q92828: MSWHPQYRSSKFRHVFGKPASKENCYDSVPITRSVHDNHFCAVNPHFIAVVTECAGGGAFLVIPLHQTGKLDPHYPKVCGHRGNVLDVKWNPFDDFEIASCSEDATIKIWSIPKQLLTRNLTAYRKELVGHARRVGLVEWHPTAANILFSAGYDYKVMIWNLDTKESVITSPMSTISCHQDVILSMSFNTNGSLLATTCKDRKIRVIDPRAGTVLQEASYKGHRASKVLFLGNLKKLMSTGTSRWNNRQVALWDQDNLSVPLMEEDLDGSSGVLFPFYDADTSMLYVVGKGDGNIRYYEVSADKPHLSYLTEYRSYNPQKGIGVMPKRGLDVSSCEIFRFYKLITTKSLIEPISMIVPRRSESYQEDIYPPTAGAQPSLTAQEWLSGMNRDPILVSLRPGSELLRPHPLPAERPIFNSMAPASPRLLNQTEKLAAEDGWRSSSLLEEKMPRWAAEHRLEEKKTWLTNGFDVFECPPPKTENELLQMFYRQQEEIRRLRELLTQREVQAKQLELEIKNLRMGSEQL
UniProt Q92747, whole entry: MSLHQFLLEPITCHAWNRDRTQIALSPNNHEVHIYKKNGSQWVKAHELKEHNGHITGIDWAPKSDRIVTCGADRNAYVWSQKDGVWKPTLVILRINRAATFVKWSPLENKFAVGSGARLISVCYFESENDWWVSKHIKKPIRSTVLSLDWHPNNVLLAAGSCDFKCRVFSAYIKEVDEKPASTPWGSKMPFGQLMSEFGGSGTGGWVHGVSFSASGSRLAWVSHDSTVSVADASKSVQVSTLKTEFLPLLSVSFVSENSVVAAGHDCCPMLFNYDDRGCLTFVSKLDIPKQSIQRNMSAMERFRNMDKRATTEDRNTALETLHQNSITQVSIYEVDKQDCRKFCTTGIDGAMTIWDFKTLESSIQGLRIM
UniProt Q8WVX9: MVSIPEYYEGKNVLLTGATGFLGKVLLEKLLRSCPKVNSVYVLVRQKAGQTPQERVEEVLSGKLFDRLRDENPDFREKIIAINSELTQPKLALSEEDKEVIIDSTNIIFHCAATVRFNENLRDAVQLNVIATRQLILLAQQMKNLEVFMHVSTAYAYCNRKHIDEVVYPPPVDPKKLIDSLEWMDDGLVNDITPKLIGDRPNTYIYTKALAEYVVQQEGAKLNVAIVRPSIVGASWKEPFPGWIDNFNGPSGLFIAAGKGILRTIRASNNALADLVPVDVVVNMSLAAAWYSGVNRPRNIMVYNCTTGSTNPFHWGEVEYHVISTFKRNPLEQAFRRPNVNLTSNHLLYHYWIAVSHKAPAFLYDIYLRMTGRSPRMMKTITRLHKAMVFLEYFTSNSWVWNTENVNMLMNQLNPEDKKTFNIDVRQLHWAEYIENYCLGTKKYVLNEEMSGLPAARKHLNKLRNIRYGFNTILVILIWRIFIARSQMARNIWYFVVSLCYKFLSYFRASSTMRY
UniProt Q8WVT3: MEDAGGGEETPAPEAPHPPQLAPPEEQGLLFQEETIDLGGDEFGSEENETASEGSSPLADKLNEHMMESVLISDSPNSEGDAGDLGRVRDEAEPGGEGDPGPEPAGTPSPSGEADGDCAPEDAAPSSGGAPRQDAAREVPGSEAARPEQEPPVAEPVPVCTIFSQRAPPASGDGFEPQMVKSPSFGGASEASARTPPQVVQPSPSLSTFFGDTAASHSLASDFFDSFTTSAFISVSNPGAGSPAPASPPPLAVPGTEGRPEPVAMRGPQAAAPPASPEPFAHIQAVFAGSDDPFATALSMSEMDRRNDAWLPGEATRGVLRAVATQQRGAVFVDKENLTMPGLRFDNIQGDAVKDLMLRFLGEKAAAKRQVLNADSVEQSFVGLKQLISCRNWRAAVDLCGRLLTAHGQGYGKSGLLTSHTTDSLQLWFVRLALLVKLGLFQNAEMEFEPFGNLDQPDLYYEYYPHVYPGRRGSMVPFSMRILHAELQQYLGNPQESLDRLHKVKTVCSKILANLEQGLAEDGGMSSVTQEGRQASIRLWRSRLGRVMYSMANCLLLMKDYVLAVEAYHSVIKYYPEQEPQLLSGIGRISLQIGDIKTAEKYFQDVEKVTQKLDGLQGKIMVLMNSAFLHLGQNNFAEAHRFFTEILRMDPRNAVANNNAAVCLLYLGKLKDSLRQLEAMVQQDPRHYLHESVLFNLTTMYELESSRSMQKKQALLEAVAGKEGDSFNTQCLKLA
UniProt Q8NEF9: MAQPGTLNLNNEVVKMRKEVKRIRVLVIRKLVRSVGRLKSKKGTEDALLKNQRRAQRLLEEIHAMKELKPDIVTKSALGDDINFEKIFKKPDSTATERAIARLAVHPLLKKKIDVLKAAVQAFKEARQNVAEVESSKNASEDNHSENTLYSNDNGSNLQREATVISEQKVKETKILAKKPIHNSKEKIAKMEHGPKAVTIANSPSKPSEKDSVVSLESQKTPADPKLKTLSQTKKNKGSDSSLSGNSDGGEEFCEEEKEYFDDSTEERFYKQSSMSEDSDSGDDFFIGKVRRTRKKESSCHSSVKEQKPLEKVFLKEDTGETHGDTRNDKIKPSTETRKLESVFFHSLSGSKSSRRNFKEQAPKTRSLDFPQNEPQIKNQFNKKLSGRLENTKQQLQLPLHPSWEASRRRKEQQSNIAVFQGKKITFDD
UniProt Q8TAT6: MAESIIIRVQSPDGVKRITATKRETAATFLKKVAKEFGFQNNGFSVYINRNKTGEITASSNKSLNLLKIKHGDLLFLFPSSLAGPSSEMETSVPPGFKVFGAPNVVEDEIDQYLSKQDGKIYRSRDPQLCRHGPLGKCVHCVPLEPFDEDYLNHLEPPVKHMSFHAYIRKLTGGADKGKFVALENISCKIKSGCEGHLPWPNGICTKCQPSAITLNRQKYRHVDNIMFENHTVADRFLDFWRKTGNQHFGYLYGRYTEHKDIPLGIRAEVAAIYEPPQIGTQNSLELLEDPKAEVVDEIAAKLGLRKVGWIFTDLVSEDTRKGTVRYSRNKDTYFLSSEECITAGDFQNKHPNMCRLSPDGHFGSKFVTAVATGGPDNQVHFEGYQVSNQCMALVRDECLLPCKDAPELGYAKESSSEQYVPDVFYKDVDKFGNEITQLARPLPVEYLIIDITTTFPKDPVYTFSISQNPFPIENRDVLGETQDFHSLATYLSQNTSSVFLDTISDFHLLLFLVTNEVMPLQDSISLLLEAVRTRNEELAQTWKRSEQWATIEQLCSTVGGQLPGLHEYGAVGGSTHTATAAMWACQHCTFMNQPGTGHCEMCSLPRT
UniProt Q8TAD8: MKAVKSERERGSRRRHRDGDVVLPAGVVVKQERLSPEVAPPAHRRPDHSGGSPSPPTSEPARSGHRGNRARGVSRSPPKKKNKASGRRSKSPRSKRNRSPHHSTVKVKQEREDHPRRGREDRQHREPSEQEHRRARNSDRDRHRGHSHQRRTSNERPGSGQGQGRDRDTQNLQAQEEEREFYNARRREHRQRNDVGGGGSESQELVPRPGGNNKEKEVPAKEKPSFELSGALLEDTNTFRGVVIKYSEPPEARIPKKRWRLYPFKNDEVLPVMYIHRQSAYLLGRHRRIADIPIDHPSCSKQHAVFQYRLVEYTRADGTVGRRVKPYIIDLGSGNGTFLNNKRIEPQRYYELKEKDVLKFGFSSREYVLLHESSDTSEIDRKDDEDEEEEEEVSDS
UniProt Q8WVM8, whole entry, looked up: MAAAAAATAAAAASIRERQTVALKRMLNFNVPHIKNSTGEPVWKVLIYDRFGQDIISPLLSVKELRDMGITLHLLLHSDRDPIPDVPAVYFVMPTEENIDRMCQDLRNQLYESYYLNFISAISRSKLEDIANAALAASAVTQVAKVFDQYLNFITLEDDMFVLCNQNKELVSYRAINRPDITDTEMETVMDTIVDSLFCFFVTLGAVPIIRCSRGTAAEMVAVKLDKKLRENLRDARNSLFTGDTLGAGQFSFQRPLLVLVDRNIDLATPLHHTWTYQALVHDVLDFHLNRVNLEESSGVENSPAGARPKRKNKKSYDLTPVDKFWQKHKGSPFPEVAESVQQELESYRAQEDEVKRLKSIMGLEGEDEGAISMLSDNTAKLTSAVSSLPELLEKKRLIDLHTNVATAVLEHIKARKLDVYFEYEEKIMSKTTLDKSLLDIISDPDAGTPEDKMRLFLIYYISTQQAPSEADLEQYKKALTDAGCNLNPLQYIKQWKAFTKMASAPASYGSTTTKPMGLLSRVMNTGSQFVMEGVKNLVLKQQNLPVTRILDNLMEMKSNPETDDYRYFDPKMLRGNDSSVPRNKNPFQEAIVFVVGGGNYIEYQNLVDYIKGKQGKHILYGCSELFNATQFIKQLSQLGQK
UniProt Q92615, whole entry: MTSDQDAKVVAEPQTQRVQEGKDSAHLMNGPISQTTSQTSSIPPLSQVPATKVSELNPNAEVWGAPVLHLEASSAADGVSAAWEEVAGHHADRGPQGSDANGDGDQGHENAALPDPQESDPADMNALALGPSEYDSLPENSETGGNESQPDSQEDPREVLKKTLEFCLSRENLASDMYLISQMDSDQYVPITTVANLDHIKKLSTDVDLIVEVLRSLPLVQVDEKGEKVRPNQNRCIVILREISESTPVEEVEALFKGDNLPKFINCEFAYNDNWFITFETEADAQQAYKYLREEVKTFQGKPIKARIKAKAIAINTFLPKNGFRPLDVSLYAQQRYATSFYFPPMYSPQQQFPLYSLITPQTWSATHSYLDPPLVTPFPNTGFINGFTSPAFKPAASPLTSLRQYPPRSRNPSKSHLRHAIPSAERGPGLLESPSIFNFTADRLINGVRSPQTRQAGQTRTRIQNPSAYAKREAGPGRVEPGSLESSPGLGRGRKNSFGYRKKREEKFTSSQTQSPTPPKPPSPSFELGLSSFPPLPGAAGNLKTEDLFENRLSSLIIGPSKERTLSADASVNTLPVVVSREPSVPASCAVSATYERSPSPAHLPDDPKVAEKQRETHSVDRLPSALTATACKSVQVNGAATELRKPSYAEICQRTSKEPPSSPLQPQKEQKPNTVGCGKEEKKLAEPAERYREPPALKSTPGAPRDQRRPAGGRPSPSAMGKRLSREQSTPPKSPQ
UniProt Q92930: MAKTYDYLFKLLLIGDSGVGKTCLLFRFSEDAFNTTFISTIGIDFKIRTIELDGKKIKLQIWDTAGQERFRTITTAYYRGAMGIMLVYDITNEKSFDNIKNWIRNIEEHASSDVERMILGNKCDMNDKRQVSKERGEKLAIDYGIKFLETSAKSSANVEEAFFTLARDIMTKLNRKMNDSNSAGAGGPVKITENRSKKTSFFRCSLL

**Q.** For UniProt Q8TAA3 and related entries, which NP40-soluble protein abundance (concentration: 0.1mM) is on record?
**A.** 0.999 ± 0.017

**Q.** And the NP40-soluble protein abundance (concentration: 0.5mM)?
**A.** 0.984 ± 0.026

**Q.** With ENGASE (UniProt Q8NFI3) as the target, how does the NP40-soluble protein abundance (concentration: 0.1mM) read?
**A.** 1.03 ± 0.067

**Q.** And the NP40-soluble protein abundance (concentration: 0.5mM)?
**A.** 0.977 ± 0.064

**Q.** With UniProt Q8NFH5 and related entries as the target, how does the NP40-soluble protein abundance (concentration: 0.1mM) read?
**A.** 1.01 ± 0.0076

**Q.** What about the NP40-soluble protein abundance (concentration: 0.5mM) of the same target?
**A.** 1.01 ± 0.022

**Q.** With PMM1 (UniProt Q92871) as the target, how does the NP40-soluble protein abundance (concentration: 0.1mM) read?
**A.** 1.01 ± 0.014

**Q.** What about the NP40-soluble protein abundance (concentration: 0.5mM) of the same target?
**A.** 1.03 ± 0.033

**Q.** CORO2A (UniProt Q92828) was tested. Which NP40-soluble protein abundance (concentration: 0.1mM) did it give?
**A.** 1.01 ± 0.014

**Q.** What about the NP40-soluble protein abundance (concentration: 0.5mM) of the same target?
**A.** 0.992 ± 0.061

**Q.** How did the NP40-soluble protein abundance (concentration: 0.1mM) turn out when ARPC1A (UniProt Q92747) was run?
**A.** 1.02 ± 0.062

**Q.** And the NP40-soluble protein abundance (concentration: 0.5mM)?
**A.** 0.974 ± 0.14

**Q.** What does the source list for FAR1 (UniProt Q8WVX9)?
**A.** NP40-soluble protein abundance (concentration: 0.1mM): 1.02 ± 0.06; NP40-soluble protein abundance (concentration: 0.5mM): 1 ± 0.053

**Q.** For UniProt Q8WVT3, which NP40-soluble protein abundance (concentration: 0.1mM) is on record?
**A.** 1.01 ± 0.026

**Q.** What about the NP40-soluble protein abundance (concentration: 0.5mM) of the same target?
**A.** 0.9815 ± 0.0066

**Q.** SRFBP1 (UniProt Q8NEF9) was tested. Which NP40-soluble protein abundance (concentration: 0.1mM) did it give?
**A.** 0.983 ± 0.016

**Q.** What about the NP40-soluble protein abundance (concentration: 0.5mM) of the same target?
**A.** 1.03 ± 0.085

**Q.** What does the source list for UniProt Q8TAT6 and related entries?
**A.** NP40-soluble protein abundance (concentration: 0.1mM): 0.971 ± 0.052; NP40-soluble protein abundance (concentration: 0.5mM): 0.977 ± 0.018

**Q.** How did the NP40-soluble protein abundance (concentration: 0.1mM) turn out when SNIP1 (UniProt Q8TAD8) was run?
**A.** 0.987 ± 0.016

**Q.** What about the NP40-soluble protein abundance (concentration: 0.5mM) of the same target?
**A.** 0.995 ± 0.024

**Q.** SCFD1 (UniProt Q8WVM8) was tested. Which NP40-soluble protein abundance (concentration: 0.1mM) did it give?
**A.** 0.983 ± 0.023

**Q.** What about the NP40-soluble protein abundance (concentration: 0.5mM) of the same target?
**A.** 0.986 ± 0.032

**Q.** Which results are given for UniProt Q92851 and related entries?
**A.** NP40-soluble protein abundance (concentration: 0.1mM): 0.992 ± 0.019; NP40-soluble protein abundance (concentration: 0.5mM): 0.972 ± 0.032

**Q.** What does the source list for RTF1 (UniProt Q92541)?
**A.** NP40-soluble protein abundance (concentration: 0.1mM): 0.98 ± 0.03; NP40-soluble protein abundance (concentration: 0.5mM): 1.01 ± 0.056

**Q.** For UniProt Q92615, which NP40-soluble protein abundance (concentration: 0.1mM) is on record?
**A.** 1.02 ± 0.021

**Q.** What about the NP40-soluble protein abundance (concentration: 0.5mM) of the same target?
**A.** 1.02 ± 0.039

**Q.** Which NP40-soluble protein abundance (concentration: 0.1mM) does the source give for UniProt Q8TBE0 and related entries here?
**A.** 1.02 ± 0.039

**Q.** And the NP40-soluble protein abundance (concentration: 0.5mM)?
**A.** 0.996 ± 0.038

**Q.** What does the source list for UniProt Q92619?
**A.** NP40-soluble protein abundance (concentration: 0.1mM): 1 ± 0.034; NP40-soluble protein abundance (concentration: 0.5mM): 1.01 ± 0.025

**Q.** How did the NP40-soluble protein abundance (concentration: 0.1mM) turn out when NSMCE1 (UniProt Q8WV22) was run?
**A.** 0.995 ± 0.018

**Q.** What about the NP40-soluble protein abundance (concentration: 0.5mM) of the same target?
**A.** 0.9948 ± 0.0074

**Q.** What does the source list for SYMPK (UniProt Q92797)?
**A.** NP40-soluble protein abundance (concentration: 0.1mM): 1.02 ± 0.017; NP40-soluble protein abundance (concentration: 0.5mM): 0.998 ± 0.017

**Q.** Which NP40-soluble protein abundance (concentration: 0.1mM) does the source give for UniProt Q8WX93 and related entries here?
**A.** 0.991 ± 0.037

**Q.** And the NP40-soluble protein abundance (concentration: 0.5mM)?
**A.** 0.995 ± 0.06

**Q.** RAB8B (UniProt Q92930) was tested. Which NP40-soluble protein abundance (concentration: 0.1mM) did it give?
**A.** 0.983 ± 0.035

**Q.** What about the NP40-soluble protein abundance (concentration: 0.5mM) of the same target?
**A.** 0.981 ± 0.036

**Q.** Which results are given for UniProt Q8TEP8-3?
**A.** NP40-soluble protein abundance (concentration: 0.1mM): 0.976 ± 0.015; NP40-soluble protein abundance (concentration: 0.5mM): 0.973 ± 0.03

**Q.** Which results are given for UniProt Q8WYP5 and related entries?
**A.** NP40-soluble protein abundance (concentration: 0.1mM): 0.985 ± 0.043; NP40-soluble protein abundance (concentration: 0.5mM): 0.9964 ± 0.005
